# Measured values reported in US4806540A, “1-heteroaryl-4-aryl-pyrazole microbicides” (Bayer Aktiengesellschaft, priority 1985, dated 1989).
# At least one structure is not confirmed: it was looked up by name or label, or the drawing left a doubt.
# What was measured:
# slime organisms = experiment: Action against slime organisms, MIC in Allen's nutrient solution; type: cell-based; set-up: unit not given beside the values; details: room temperature, 3 weeks
# [1] = tested on: fungi: Alternaria tenuis, Aspergillus niger, Aureobasidium pullulans, Chaetomium globosum, Cladosporium cladoporioides, Lentinus tigrinus, Penicillium glaucum …; experiment: Minimum inhibitory concentrations (MIC), activity against fungi (agar); type: cell-based; details: agar from beer wort and peptone; 28° C., 60 to 70% humidity, 2 weeks; 0.1 mg/l to 5,000 mg/l
# Experimental: Active compounds according to the invention are added in concentrations of 0.1 mg/l to 5,000 mg/l to an agar prepared from beer wort and peptone. After storage at 28° C. and 60 to 70% relative atmospheric humidity for 2 weeks, the MIC is determined. […] Good actions of the listed test organisms are shown, for example, by the compounds according to Preparation Examples 2, 6a, 12a, 9b, 24 and 25: […]
structure (smiles),measurement,setting,value
"CS(=O)(=O)n1cc(-c2ccccc2)c(=O)n1-c1ccccn1 [Example 24, 1-pyrid-2-yl-2-methylsulphonyl-4-phenyl-pyrazolin-5-one]",MIC,slime organisms,2-<5
same,action against the listed test organisms (fungi),[1],Good actions
